Measurements published in the supplement of paper PMC10382679.
Single values of this set are uncertain.

B1: Rpb7; numbered along this chain (parent)
chain: MFFIKDLSLNITLHPSFFGPRMKQYLKTKLLEEVEGSCTGKFGYILCVLDYDNIDIQRGRILPTDGSAEFNVKYRAVVFKPFKGEVVDGTVVSCSQHGFEVQVGPMKVFVTKHLMPQDLTFNAGSNPPSYQSSEDVITIKSRIRVKIEGCISQVSSIHAIGSIKEDYLGAI

Tests used:
[1] = variants of: B1; experiment: log2 fold change of mutant abundance, UV-irradiated vs unirradiated; higher = more UV resistant (enriched after UV); conditions: with Saccharomyces cerevisiae rad7Δ rad26Δ; UV dose (J/m2): 10; genetic background: rad7Δ rad26Δ rpb7Δ + plasmid RPB7 library; outgrowth: 10 cell divisions
[2] = variants of: B1; experiment: NOISeq theta enrichment statistic, UV-irradiated vs unirradiated (dimensionless); higher = more UV resistant (enriched after UV); conditions: with Saccharomyces cerevisiae rad7Δ rad26Δ; UV dose (J/m2): 10; genetic background: rad7Δ rad26Δ rpb7Δ + plasmid RPB7 library; outgrowth: 10 cell divisions

Row | Variant | log2 fold change of mutant abundance [1] | NOISeq theta enrichment statistic [2]
1 | V86W | -0.228 | -0.136
2 | E69W | -0.443 | -0.306
3 | E69Q | -0.0717 | -0.109
4 | L114V | 0.0767 | 0.11
5 | L114W | 0.107 | 0.0875
6 | L114H | 0.352 | 0.326
7 | I151L | 0.172 | 0.228
8 | I151T | -0.0199 | -0.0836
9 | I151D | 0.409 | 0.186
10 | L49T | 0.451 | 0.333
11 | L49H | -0.00696 | -0.00395
12 | F70C | -0.0833 | -0.179
13 | N126R | -0.276 | -0.19
14 | S125Y | 0.0821 | 0.0877
15 | S125A | 0.064 | 0.13
16 | S125L | -0.0511 | -0.124
17 | N10K | -0.0298 | -0.0912
18 | N10S | 0.0507 | 0.245
19 | G169R | -0.113 | -0.16
20 | I11L | -0.211 | -0.282

Row | Variant | log2 fold change of mutant abundance [1] | NOISeq theta enrichment statistic [2]
21 | I11T | -0.0522 | -0.14
22 | F99I | -0.0371 | -0.335
23 | H97T | -0.000674 | -0.00391
24 | K27W | 0.222 | 0.155
25 | D65F | 0.199 | 0.124
26 | D65C | -0.539 | -0.353
27 | D65T | -0.144 | -0.116
28 | I61M | -0.0812 | -0.209
29 | D6T | -0.338 | -0.301
30 | D88N | 0.0319 | 0.133
31 | D88T | 0.0562 | 0.0724
32 | H14P | -0.00685 | -0.00982
33 | H14S | -0.431 | -0.266
34 | V145F | 0.582 | 0.735
35 | C38V | -0.0129 | -0.0145
36 | C38S | 0.106 | 0.47
37 | P105T | -0.00773 | -0.0329
38 | G36E | 1.55 | 0.668
39 | G36C | -0.0422 | -0.0952
40 | V87K | -0.438 | -0.279

Single records, from the list above. Order of values: log2 fold change of mutant abundance [1] | NOISeq theta enrichment statistic [2]
H97T in the list: -0.000674 | -0.00391
V87K in the list: -0.438 | -0.279

More entries follow:

Row | Variant | log2 fold change of mutant abundance [1] | NOISeq theta enrichment statistic [2]
41 | V87D | -0.0311 | -0.0277
42 | T28M | -1.02 | -0.801
43 | T28D | -0.0126 | -0.00599
44 | E165D | 0.0518 | 0.149
45 | E165Q | -0.144 | -0.154
46 | A68I | -0.435 | -0.241
47 | A68R | -0.333 | -0.152
48 | A68D | -0.0809 | -0.108
49 | G104R | 0.0375 | 0.0829
50 | G104E | -0.0305 | -0.0429
51 | G104I | 0.207 | 0.168
52 | I4T | 0.101 | 0.215
53 | G59V | -0.423 | -1.23
54 | L119W | 1.15 | 0.672
55 | V34D | -0.176 | -0.209
56 | F109L | -0.258 | -1.65
57 | F109T | -0.11 | -0.0747
58 | G98V | 0.00328 | 0.00825
